Experimental data from US9821173B2, “Anti-cancer agents and methods of use” (Case Western Reserve University, priority 2013, dated 2017).

Columns and labels:
[1] = system: panel of 64 kinases; test: Kinase inhibition screening, whole panel (Luceome Biotechnologies); format: biochemical, human; conditions: 10˜M of compound
[2] = system: CEM-C7; test: Cell proliferation / cytotoxicity assay; format: cell-based; conditions: for Selectivity Factor: SF = IC50 Leukemia (CEMC7)/IC50 Adherent cells
Description: HeLa, MCF-7, HCT-116, and CEM-C7 were obtained from the American Type Culture Collection (Manassas, Va., USA). All adherent cell lines were maintained in Dulbecco's modified Eagle's medium (Mediatech) with 100 U/ml penicillin (Invitrogen), 100 μg/ml streptomycin (Invitrogen), 0.25 μg/ml amphotericin B (Invitrogen), and 10% fetal bovine serum (USA Scientific) and incubated at 37° C. with 5% CO2. CEM cells were maintained in RPMI-1640 media supplemented with 100 U/ml penicillin, 100 μg/ml streptomycin, 0.25 μg/ml amphotericin B, and 10% fetal bovine serum and incubated at 37° C. with […].
Cells were plated at a density of 7,000-13,000/well in 200 μl of media overnight in a 96-well plate. Each (phosphine)gold(I)-indole was added to wells in a dose-dependent manner (0.01-100 μM). Cells were treated with compounds for variable time periods (8-48 hours). With adherent cell lines, medium was removed from the wells and then 100 μl of fresh medium was added into each well followed by the addition of 20 μl of cell titer-blue reagent (Promega). Cells were incubated with reagent for 1-4 hrs and the optical density of samples was read at 560 nm using a microplate reader. The background absorbance of dye with media was subtracted from each sample. Cell viability was then normalized against cells treated with DMSO. IC50 values were obtained using a fit of the data to Equation 1: Y=100%/[1+(IC50/Inhibitor)] (1)
where y is the fraction of viable cells, IC50 is the concentration of inhibitor that inhibits 50% cell growth, and Inhibitor is the concentration of compound tested.
The cellular effects of these (phosphine)gold(I) indoles were tested against several cancer cell lines including HeLa (cervical cancer), MCF-7 (breast cancer), HCT-116 (colon cancer), and CEM-C7 (leukemia). The dose-dependency of each modified indole on cell viability was assessed using a cell-titer blue assay as previously described. In these experiments, cells were exposed to variable concentrations of each (phosphine)gold(I) indole (0.01-100 μM) for up to 48 hours and then assessed for viability.
Defining this mechanism of cell death is important as necrosis can cause various side-effects including septic shock and kidney failure that can obviously compromise patient health.

Row | Compound | number of kinases showing greater than 20% inhibition [1] | Selectivity Factor [2] | fold lower LD50 than that measured for compound 3 and 4 ([2]; CEM-C7)
1 | CC(C)(C)OC(=O)n1ccc2c[c]([Au-][P+](c3ccccc3)(c3ccccc3)c3ccccc3)ccc21 [Compound 3, 5-{Triphenylphosphine aurate(I)}-tert-butyl1H-indole-1-carboxylate] | six | 1.2-8.0 | 
2 | CC(C)(C)C(=O)OCn1ccc2c[c]([Au-][P+](c3ccccc3-c3ccccc3)(C3CCCCC3)C3CCCCC3)ccc21 [Compound 6, 5-{[1,1′-biphenyl]-2-yldicyclohexylphosphine aurate(I)}-(1H-indol-1-yl)methyl pivalate] |  | 0.2-0.6 | 
3 | [Au+].[Br-].c1ccc(P(c2ccccc2)c2ccccc2)cc1 [BrAuPPh3, reference compound] |  |  | 40-80 fold
4 | Cn1ccc2c[c]([Au-][P+](c3ccccc3-c3ccccc3)(C3CCCCC3)C3CCCCC3)ccc21 [Compound 7, 5-{[1,1′-biphenyl]-2-yldicyclohexylphosphine aurate(I)}-1-methyl-1H-indole] |  | 0.4-3.8 | 
5 | CC(C)(C)OC(=O)n1ccc2c[c]([Au-][P+](c3ccccc3-c3ccccc3)(C3CCCCC3)C3CCCCC3)ccc21 [Compound 5, 5-{[1,1′-biphenyl]-2-yldicyclohexylphosphine aurate(I)}-tert-butyl H-indole-1-carboxylate] |  | 0.6-0.9 | 
6 | CC(C)(C)OC(=O)n1ccc2c[c]([Au-][P+](C3CCCCC3)(C3CCCCC3)C3CCCCC3)ccc21 [Compound 4, 5-{Tricyclohexylphosphine aurate(I)}-tert-butyl1H-indole-1-carboxylate] | 18 | 0.3-0.6 | 
